Experiment [1] has as its target T1, OsHOX22ΔC (C-terminal deletion construct of OsHOX22, 1–173 aa) (rice) (UniProt Q7XUJ5).
T1 sequence: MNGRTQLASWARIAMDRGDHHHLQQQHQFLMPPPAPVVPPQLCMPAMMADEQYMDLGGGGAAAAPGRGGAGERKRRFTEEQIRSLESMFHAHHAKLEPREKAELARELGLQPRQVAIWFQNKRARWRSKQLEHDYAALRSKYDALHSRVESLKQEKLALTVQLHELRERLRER
Nature of the experiment: two-hybrid; GAL4 system in yeast AH109; bait pGBKT7 with the truncated (ΔC) ORF co-transformed with prey pGADT7 with full-length or truncated ORF; growth on SD-Trp-Leu and SD-Trp-Leu-His-Ade, 30°C, 3–5 days.

Experiment [2] has as its target T2, OsHOX24ΔC (C-terminal deletion construct of OsHOX24, 1–164 aa) (rice) (UniProt Q6H6S3).
T2 sequence: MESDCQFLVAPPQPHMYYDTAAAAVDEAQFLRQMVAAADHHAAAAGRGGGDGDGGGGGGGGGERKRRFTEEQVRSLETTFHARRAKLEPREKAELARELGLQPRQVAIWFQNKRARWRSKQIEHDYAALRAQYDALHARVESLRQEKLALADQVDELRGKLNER
The description is as above.

Results are given in words; binding and its absence hold for the method and conditions named. Some entries that bind do so weakly or less than the wild type.

B1: OsHOX24ΔC (C-terminal deletion construct of OsHOX24, 1–164 aa) (domain or fragment, UniProt Q6H6S3 1-164)
chain: MESDCQFLVAPPQPHMYYDTAAAAVDEAQFLRQMVAAADHHAAAAGRGGGDGDGGGGGGGGGERKRRFTEEQVRSLETTFHARRAKLEPREKAELARELGLQPRQVAIWFQNKRARWRSKQIEHDYAALRAQYDALHARVESLRQEKLALADQVDELRGKLNER
With B1, the binding entry in experiment [1] and in experiment [2] was “binds” each time.

B2: OsHOX22 full-length (protein, UniProt Q7XUJ5 1-276)
chain: MNGRTQLASWARIAMDRGDHHHLQQQHQFLMPPPAPVVPPQLCMPAMMADEQYMDLGGGGAAAAPGRGGAGERKRRFTEEQIRSLESMFHAHHAKLEPREKAELARELGLQPRQVAIWFQNKRARWRSKQLEHDYAALRSKYDALHSRVESLKQEKLALTVQLHELRERLREREERSGNGGAATTAASSSSCNGSGSEEVDDDDDKRNAAAGCLDLEPPESCVLGGATCATPADVSVESDQCDDQLDYDEGLFPESFCATPELWEPWPLVEWNAVA
For B2, the binding entry in experiment [1] and in experiment [2] was “binds” in each case.

B3: OsHOX24 full-length (protein, UniProt Q6H6S3 1-261)
chain: MESDCQFLVAPPQPHMYYDTAAAAVDEAQFLRQMVAAADHHAAAAGRGGGDGDGGGGGGGGGERKRRFTEEQVRSLETTFHARRAKLEPREKAELARELGLQPRQVAIWFQNKRARWRSKQIEHDYAALRAQYDALHARVESLRQEKLALADQVDELRGKLNERQDQSGSCDGGGAEGDDDDKRNSVMNASSSGLVEEDYVSCLAVPVVDVSEDGSAACGGSSYEYDHHLDYLGGGQLPDPFCGMPDLWEIWPMVEWNAVA
Take B3: the binding result in experiment [1] and in experiment [2] was “binds” throughout.

B4: OsHOX22ΔC (C-terminal deletion construct of OsHOX22, 1–173 aa) (domain or fragment, UniProt Q7XUJ5 1-173)
chain: MNGRTQLASWARIAMDRGDHHHLQQQHQFLMPPPAPVVPPQLCMPAMMADEQYMDLGGGGAAAAPGRGGAGERKRRFTEEQIRSLESMFHAHHAKLEPREKAELARELGLQPRQVAIWFQNKRARWRSKQLEHDYAALRSKYDALHSRVESLKQEKLALTVQLHELRERLRER
B4: the binding result in experiment [1] and in experiment [2] was “binds” in each case.

For the origin of these results see publication PMC4862318.
